No constants are given. Whether binding was seen depends on the method and setting. In cells and extracts the contact can be indirect. Some entries that bind do so weakly or less than the wild type. For some assays here: Sequences can lack the tags named with a protein.
T1: FLAG-δEF1 (wild type) (UniProt P37275)
T1 sequence: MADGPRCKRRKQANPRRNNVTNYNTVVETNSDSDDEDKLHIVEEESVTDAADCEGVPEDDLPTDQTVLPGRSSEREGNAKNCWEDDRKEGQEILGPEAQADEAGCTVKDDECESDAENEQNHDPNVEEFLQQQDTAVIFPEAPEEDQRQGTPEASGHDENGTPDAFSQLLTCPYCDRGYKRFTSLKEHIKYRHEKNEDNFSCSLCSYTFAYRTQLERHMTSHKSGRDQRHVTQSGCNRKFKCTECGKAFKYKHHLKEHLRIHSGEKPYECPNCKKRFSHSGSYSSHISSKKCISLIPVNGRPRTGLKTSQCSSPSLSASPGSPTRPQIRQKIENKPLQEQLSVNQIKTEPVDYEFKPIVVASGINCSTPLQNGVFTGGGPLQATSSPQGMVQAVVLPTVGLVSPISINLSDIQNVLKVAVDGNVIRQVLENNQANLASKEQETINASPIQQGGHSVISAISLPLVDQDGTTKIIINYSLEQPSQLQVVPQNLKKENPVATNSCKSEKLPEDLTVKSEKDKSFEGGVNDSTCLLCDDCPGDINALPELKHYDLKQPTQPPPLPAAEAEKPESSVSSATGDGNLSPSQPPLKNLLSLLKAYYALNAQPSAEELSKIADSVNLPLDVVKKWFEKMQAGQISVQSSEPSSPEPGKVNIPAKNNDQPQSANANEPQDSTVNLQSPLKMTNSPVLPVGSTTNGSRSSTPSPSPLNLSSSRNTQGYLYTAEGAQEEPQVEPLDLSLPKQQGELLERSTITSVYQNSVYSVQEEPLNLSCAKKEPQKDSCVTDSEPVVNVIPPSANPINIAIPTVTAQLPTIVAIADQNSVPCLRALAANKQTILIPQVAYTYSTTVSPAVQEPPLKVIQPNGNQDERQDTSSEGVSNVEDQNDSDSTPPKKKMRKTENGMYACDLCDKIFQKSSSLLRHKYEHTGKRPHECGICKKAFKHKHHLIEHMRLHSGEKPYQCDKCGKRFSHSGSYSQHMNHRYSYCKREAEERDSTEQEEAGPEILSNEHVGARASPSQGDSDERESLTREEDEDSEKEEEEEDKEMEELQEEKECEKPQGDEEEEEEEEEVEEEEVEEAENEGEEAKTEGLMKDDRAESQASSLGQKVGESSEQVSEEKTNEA

The chains behind the UniProt entries cited, without tags or fusion partners.
UniProt P26358: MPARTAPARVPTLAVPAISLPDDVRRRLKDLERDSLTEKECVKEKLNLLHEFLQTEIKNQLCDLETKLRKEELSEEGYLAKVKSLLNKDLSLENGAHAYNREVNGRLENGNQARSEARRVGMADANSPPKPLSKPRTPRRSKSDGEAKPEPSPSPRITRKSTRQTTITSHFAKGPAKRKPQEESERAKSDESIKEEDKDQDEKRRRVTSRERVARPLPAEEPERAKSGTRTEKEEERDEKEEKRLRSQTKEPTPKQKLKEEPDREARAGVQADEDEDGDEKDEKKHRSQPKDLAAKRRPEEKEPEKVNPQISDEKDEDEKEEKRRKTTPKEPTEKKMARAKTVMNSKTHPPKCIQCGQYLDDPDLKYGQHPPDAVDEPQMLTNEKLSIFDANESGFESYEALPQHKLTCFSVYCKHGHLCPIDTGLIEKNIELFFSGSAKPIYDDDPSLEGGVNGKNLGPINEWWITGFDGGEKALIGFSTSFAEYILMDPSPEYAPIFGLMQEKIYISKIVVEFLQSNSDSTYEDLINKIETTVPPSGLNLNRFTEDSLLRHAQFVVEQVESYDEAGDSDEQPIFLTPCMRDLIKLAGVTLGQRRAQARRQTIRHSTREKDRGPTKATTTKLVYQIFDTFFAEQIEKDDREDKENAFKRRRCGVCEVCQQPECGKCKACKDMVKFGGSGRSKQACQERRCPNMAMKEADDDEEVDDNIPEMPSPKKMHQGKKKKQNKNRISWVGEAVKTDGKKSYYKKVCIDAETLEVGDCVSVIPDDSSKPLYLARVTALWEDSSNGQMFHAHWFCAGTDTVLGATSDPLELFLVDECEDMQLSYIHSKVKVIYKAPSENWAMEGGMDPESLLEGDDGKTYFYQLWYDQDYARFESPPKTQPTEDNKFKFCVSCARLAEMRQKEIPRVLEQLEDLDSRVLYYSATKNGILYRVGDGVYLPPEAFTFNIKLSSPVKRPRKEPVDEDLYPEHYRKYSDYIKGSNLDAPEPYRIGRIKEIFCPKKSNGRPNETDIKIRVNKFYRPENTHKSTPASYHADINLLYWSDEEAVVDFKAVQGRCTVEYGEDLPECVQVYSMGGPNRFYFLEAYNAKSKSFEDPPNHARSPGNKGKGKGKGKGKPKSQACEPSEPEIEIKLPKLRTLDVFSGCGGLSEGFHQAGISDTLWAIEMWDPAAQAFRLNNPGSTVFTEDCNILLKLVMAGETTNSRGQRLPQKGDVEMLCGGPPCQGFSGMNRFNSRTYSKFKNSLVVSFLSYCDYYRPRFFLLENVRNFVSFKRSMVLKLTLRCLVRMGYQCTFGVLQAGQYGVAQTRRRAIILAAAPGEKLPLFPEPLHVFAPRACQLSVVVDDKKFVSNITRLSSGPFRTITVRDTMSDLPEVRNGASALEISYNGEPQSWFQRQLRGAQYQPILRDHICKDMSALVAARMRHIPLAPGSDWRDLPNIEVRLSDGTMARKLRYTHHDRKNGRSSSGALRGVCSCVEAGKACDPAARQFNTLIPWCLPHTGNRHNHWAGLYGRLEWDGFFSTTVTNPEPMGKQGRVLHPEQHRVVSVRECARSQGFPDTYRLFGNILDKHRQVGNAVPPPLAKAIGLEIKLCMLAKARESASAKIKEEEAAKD
UniProt Q9UBB5: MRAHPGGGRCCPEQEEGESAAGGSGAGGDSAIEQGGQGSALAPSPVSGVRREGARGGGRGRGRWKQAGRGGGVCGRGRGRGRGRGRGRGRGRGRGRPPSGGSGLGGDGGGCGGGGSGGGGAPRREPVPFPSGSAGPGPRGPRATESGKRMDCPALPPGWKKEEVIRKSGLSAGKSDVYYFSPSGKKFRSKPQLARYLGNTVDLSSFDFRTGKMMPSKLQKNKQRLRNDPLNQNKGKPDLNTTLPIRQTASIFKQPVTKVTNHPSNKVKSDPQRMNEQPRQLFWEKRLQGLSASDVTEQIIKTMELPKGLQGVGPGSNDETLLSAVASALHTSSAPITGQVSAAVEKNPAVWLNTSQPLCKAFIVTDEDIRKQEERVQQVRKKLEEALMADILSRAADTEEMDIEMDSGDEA


Key:
[1] = molecular target: T1, FLAG-δEF1 (wild type); experiment: co-IP; HEK293 cells transiently transfected, harvested after 24 h; lysis in 20 mmol/L Tris-HCl pH 7.5, 150 mmol/L NaCl, 10 mmol/L EDTA, 1 mmol/L EGTA, 1% Nonidet P-40; IP with anti-FLAG antibody, IB with anti-Myc or anti-HA antibody
[2] = molecular target: endogenous DNMT1 (human (endogenous in Hs578T)) (UniProt P26358); experiment: co-IP; endogenous proteins of Hs578T cells; IP with anti-DNMT1 antibody or IgG, IB with anti-DNMT1 or anti-δEF1 antibodies

binding [1] | binding [2] | Molecule
binds | – | HA-MBD2 (from UniProt Q9UBB5 1-411)
– | binds | endogenous δEF1 (protein, UniProt P37275 1-1124) MADGPRCKRRKQANPRRNNVTNYNTVVETNSDSDDEDKLHIVEEESVTDAADCEGVPEDDLPTDQTVLPGRSSEREGNAKNCWEDDRKEGQEILGPEAQADEAGCTVKDDECESDAENEQNHDPNVEEFLQQQDTAVIFPEAPEEDQRQGTPEASGHDENGTPDAFSQLLTCPYCDRGYKRFTSLKEHIKYRHEKNEDNFSCSLCSYTFAYRTQLERHMTSHKSGRDQRHVTQSGCNRKFKCTECGKAFKYKHHLKEHLRIHSGEKPYECPNCKKRFSHSGSYSSHISSKKCISLIPVNGRPRTGLKTSQCSSPSLSASPGSPTRPQIRQKIENKPLQEQLSVNQIKTEPVDYEFKPIVVASGINCSTPLQNGVFTGGGPLQATSSPQGMVQAVVLPTVGLVSPISINLSDIQNVLKVAVDGNVIRQVLENNQANLASKEQETINASPIQQGGHSVISAISLPLVDQDGTTKIIINYSLEQPSQLQVVPQNLKKENPVATNSCKSEKLPEDLTVKSEKDKSFEGGVNDSTCLLCDDCPGDINALPELKHYDLKQPTQPPPLPAAEAEKPESSVSSATGDGNLSPSQPPLKNLLSLLKAYYALNAQPSAEELSKIADSVNLPLDVVKKWFEKMQAGQISVQSSEPSSPEPGKVNIPAKNNDQPQSANANEPQDSTVNLQSPLKMTNSPVLPVGSTTNGSRSSTPSPSPLNLSSSRNTQGYLYTAEGAQEEPQVEPLDLSLPKQQGELLERSTITSVYQNSVYSVQEEPLNLSCAKKEPQKDSCVTDSEPVVNVIPPSANPINIAIPTVTAQLPTIVAIADQNSVPCLRALAANKQTILIPQVAYTYSTTVSPAVQEPPLKVIQPNGNQDERQDTSSEGVSNVEDQNDSDSTPPKKKMRKTENGMYACDLCDKIFQKSSSLLRHKYEHTGKRPHECGICKKAFKHKHHLIEHMRLHSGEKPYQCDKCGKRFSHSGSYSQHMNHRYSYCKREAEERDSTEQEEAGPEILSNEHVGARASPSQGDSDERESLTREEDEDSEKEEEEEDKEMEELQEEKECEKPQGDEEEEEEEEEVEEEEVEEAENEGEEAKTEGLMKDDRAESQASSLGQKVGESSEQVSEEKTNEA
